Where “and” joins values, the source holds several entries; their conditions need not be identical. Identical values can stand only once.

The source of these data is patent US8440718B2, “Modulation of inflammation related to columnar epithelia” (The Brigham and Women's Hospital, Inc., priority 1991, dated 2013).

The test system of the test is human PMN migration across T84 epithelial monolayers. The experiment in a line: Effect of inhibitors on baseline and LXA4-elicited PMN transepithelial migration, apical-to-basolateral. In kind it is cell-based.

`CN[C@@H]1C[C@H]2O[C@@](C)([C@@H]1OC)n1c3ccccc3c3c4c(c5c6ccccc6n2c5c31)C(=O)NC4` [staurosporine]: the “inhibition of baseline PMN transepithelial migration vs vehicle control” value is 93±5% and 96±9%. For the same compound, the inhibition at 1 pM (Homo sapiens, staurosporine 0.001 nM, read-out: inhibition of baseline PMN transepithelial migration compared to vehicle controls) worked out at 11 ± 6%. Also, under “Homo sapiens, staurosporine 0.01 nM, read-out: inhibition of baseline PMN transepithelial migration compared to vehicle controls”, the inhibition at 10 pM was determined as 35 ± 11%. Besides, the inhibition at 0.0001 µM (Homo sapiens, staurosporine 0.1 nM, read-out: inhibition of baseline PMN transepithelial migration compared to vehicle controls) amounted to 54 ± 8%. Besides, for the setting “Homo sapiens, staurosporine 1 nM, read-out: inhibition of baseline PMN transepithelial migration compared to vehicle controls”, the inhibition at 0.001 µM is 67 ± 11%. Further, the inhibition at 0.1 µM (Homo sapiens, staurosporine 100 nM, read-out: inhibition of baseline PMN transepithelial migration compared to vehicle controls) was 94 ± 4%. For the same compound, for the setting “staurosporine with LXA4 10 nM”, the “inhibition of LXA4-elicited increment in migration compared to vehicle control” value was 89±7%.
